Source: patent publication US20170218015 (published 2017)

Test: general procedure: solution-phase peptide synthesis; ethyl-N-dimethylpropylamine carbodiimide / 2-hydroxypyridine-N-oxide
Conditions: acetate salt

Substance	step yield (late stage modification step) [%]	final purity (method not given) (whole synthesis, scale of the general procedure 2.35 mmol)	step yield (coupling step) [%]
H-Inp-(D)Bal-(D)Trp-Phe-Apc-NH2	70	greater than 95%	
Boc-Inp-(D)Bal-(D)Trp-Phe-Apc(Boc)-NH2			86
